According to PubChem BioAssay AID540256 (National Center for Advancing Translational Sciences (NCATS), 2011):
About 3,700 (1.2%) of roughly 300,000 compounds were called active. This list was built around the results that the source calls inconclusive (neither active nor inactive); the mix of calls is not that of the screen. Calls follow the shape of the full dose curve; tested in HEK293 cells. Where the call is inconclusive, the potency comes from a doubtful curve fit.

Experiment: qHTS for Inhibitors of binding or entry into cells for Lassa Virus; also: nearly all actives have a fitted effect of over 50% in size
Settings: Lassa virus pseudotype entry inhibition, cell reporter; activity change, negative = inhibition: at 37.9 µM (top of the series) unless noted
% is scaled to controls: 0 for no effect and ±100 for the full control effect; potency is read from the fitted curve at half-maximal effect.

SMILES	Potency	activity change, negative = inhibition
Cc1cc(C(=O)CSc2nc3ccccc3[nH]2)c(C)n1CC1CCCO1 (stereo not drawn)	active: 7.94 µM	
CCNc1nc(ON=C(C)C)nc(N(C)C)n1		inactive: -3.07%
CCCOc1ccc(C(=O)Nc2ccc3c(c2)OCCO3)cc1	inconclusive: 2.51 µM [inhibitor, full curve, poor fit]	
COC(=O)[C@H](C)NC(=O)Nc1ccc(OC)cc1OC	inconclusive: 3.55 µM [activator, partial curve, poor fit]	
O=C(NN=C1C2CC3CC(C2)CC1C3)c1ccncc1		inactive: 12.6%
COc1ccc(-c2ccc(SCC(=O)c3ccc(F)cc3)nn2)cc1OC	inconclusive: 3.98 µM [inhibitor, partial curve]	
O=C(Oc1c(-c2ccccc2)c(=O)n2c3c(cccc13)CC2)c1ccc(F)cc1	inconclusive: 35.5 µM [inhibitor, partial curve, poor fit]	
Cc1ccc(NC(=O)c2ccc(COc3ccc4c(c3)CCC4)cc2)c(C)c1		inactive: 10.9%
CC1Oc2ccccc2N(CC(=O)N2CCCC2)C1=O (stereo not drawn)		inactive: -2.93%
Cc1ccc(C)c(OCCCN2CCc3ccccc3C2)c1	inconclusive: 25.1 µM [inhibitor, single point]	
Cc1ccc2nc(N(CCCN(C)C)C(=O)CCc3ccccc3)sc2c1	inconclusive: 35.5 µM [inhibitor, single point]	
CCn1c(=O)cc(OCC(=O)N2CCN(Cc3ccc4c(c3)OCO4)CC2)c2ccccc21		inactive: 3.63%
COc1cc(C(=O)O/N=C2\C=CC(=O)C(C)=C2)cc(OC)c1OC	inconclusive: 16.4 µM [inhibitor, single point]	
COc1ccc(NC(=O)CSC2=C(C#N)C(c3ccco3)C(C(=O)Nc3nc4ccccc4s3)=C(C)N2)cc1 (stereo not drawn)	inconclusive: 35.5 µM [inhibitor, single point]	
O=S(=O)(Nc1ccc(N2CCCCC2)cc1)c1ccccc1		inactive: -3.82%
COc1ccc(-c2cc3nc(C)c(CCC(=O)N4CCN(c5cc(C)ccc5C)CC4)c(C)n3n2)c(OC)c1		inactive: 12.7% [at 46.1 µM]
O=C(COc1cccc2ccccc12)NNC(=O)Nc1ccccc1	inconclusive: 0.92 µM [inhibitor, partial curve, poor fit]	
COc1cc(/C=N/NC(=S)NC2CC3C=CC2C3)cc(OC)c1OC (stereo not drawn)	inconclusive: 17.8 µM [inhibitor, single point]	
COC(=O)C=C1CCC2C3CCC4=CC(=O)CCC4(C)C3C(=O)CC12C (stereo not drawn)	inconclusive: 12.6 µM [inhibitor, single point]	
Cc1cc(SCC(=O)N/N=C/c2ccc(O)cc2O)c(C)cc1Br	active: 4.61 µM	
Cc1ccc2oc(Nc3nc(C)cc(C)n3)nc2c1		inactive: 4.32%
CC(=O)NC(Cc1ccc(F)c(F)c1)C(=O)NC1CCN(c2nnnn2-c2ccccc2)CC1 (stereo not drawn)	inconclusive: 0.0651 µM [inhibitor, full curve, poor fit]	
O=C(CSCC(=O)N1CCCCC1)OCC(=O)c1c[nH]c2ccccc12	inconclusive: 29.1 µM [activator, single point]	
COc1ccc(C(CNC(=O)c2cc3ccccc3o2)N2CCCCC2)cc1 (stereo not drawn)	inconclusive: 2.82 µM [inhibitor, single point]	
COc1ccc(CNC(=O)CCCc2ccccc2)cc1		inactive: 4.99%

Shown with bars between the fields: five of the compounds above
SMILES | Potency | activity change, negative = inhibition
COc1cc(/C=N/NC(=S)NC2CC3C=CC2C3)cc(OC)c1OC (stereo not drawn) | inconclusive: 17.8 µM [inhibitor, single point] | 
COC(=O)C=C1CCC2C3CCC4=CC(=O)CCC4(C)C3C(=O)CC12C (stereo not drawn) | inconclusive: 12.6 µM [inhibitor, single point] | 
Cc1cc(SCC(=O)N/N=C/c2ccc(O)cc2O)c(C)cc1Br | active: 4.61 µM | 
Cc1ccc2oc(Nc3nc(C)cc(C)n3)nc2c1 |  | inactive: 4.32%
CC(=O)NC(Cc1ccc(F)c(F)c1)C(=O)NC1CCN(c2nnnn2-c2ccccc2)CC1 (stereo not drawn) | inconclusive: 0.0651 µM [inhibitor, full curve, poor fit] | 

(next part)

SMILES	Potency	activity change, negative = inhibition
COc1ccc(/C(N)=N/OC(=O)Cc2ccccc2OC)cc1		inactive: 27.1%
Cc1ccc2nc(C)cc(N/N=C/c3cccc(O)c3)c2c1	inconclusive: 0.501 µM [activator, single point]	
CC(C)(C)Sc1ccc([N+](=O)[O-])cc1C(=O)Nc1ccncc1		inactive: 15.4%
CNC(=O)c1c(NC(=O)c2ccc(S(=O)(=O)N3CCCC(C)C3)cc2)sc2c1CCC2 (stereo not drawn)		inactive: 13.8% [at 46.1 µM]
S=C(NCC1CC1)N/N=C/c1ccccc1Cl		inactive: -13.4%
O=C(CCNC(=O)c1ccc(Br)cc1)NCc1ccccc1F		inactive: -14.8%
CN(C)c1cccc(F)c1C(=O)NC(=O)Nc1ccc(Cl)cc1	inconclusive: 1.26 µM [inhibitor, single point]	
CCOC(=O)c1ccc(-c2csc(NC(=O)CN3CCC(C)CC3)n2)cc1	inconclusive: 3.16 µM [inhibitor, partial curve, poor fit]	
COC(=O)c1c(SCC(=O)Nc2cc(F)ccc2F)[nH]c2ccc(C)cc2c1=O	inconclusive: 3.16 µM [activator, partial curve, poor fit]	
COC(=O)Nc1ccc(OCc2ccccc2)cc1	inconclusive: 6.51 µM [activator, single point]	
Cc1ccc(/C=C2\SC(=S)N(CCCC(=O)Nc3cccnc3)C2=O)cc1	inconclusive: 2.24 µM [inhibitor, full curve, poor fit]	
CCc1cc(C(=O)N/N=C/c2ccc(O)cc2)c2ccccc2n1	inconclusive: 6.31 µM [inhibitor, single point]	
Cc1cccc(NC(=S)NC2CC3CCCC(C2)N3Cc2cccs2)c1 (stereo not drawn)	inconclusive: 29.1 µM [inhibitor, single point]	
COc1ccc(-c2cc(C(F)(F)F)nc(NCCc3ccccc3)n2)cc1	inconclusive: 5.62 µM [activator, single point]	
Cc1ccc(-c2nn(-c3ccccc3)cc2/C=C(\C#N)C(=O)NCc2ccccc2)cc1	inconclusive: 35.5 µM [activator, partial curve, poor fit]	
Cc1ccc(C)c(S(=O)(=O)N2CCN(CC(=O)Nc3ccc4c(c3)OCCO4)CC2)c1		inactive: -1.93%
CCC(C(=O)O)n1c(C(F)(F)F)nc2ccccc21 (stereo not drawn)		inactive: 1.17%
CN(C)c1ccc(C(=O)OCc2ccccc2)cc1	inconclusive: 20 µM [inhibitor, partial curve, poor fit]	
COc1ccc(CCN2C(=O)CSC2=S)cc1OC	inconclusive: 35.5 µM [inhibitor, partial curve, poor fit]	
CC1CC(C)CN(S(=O)(=O)c2ccc(C(=O)N3CCOCC3)cc2)C1 (stereo not drawn)	inconclusive: 6.31 µM [activator, single point]	
O=C(O)/C=C/C(=O)NCc1ccccc1		inactive: -1.63%
Cc1cc(C)n(CC(C)NC(=O)CCc2nnc(CCc3ccccc3)o2)n1 (stereo not drawn)		inactive: -7.82%
COC(=O)C(C)Sc1ccc2nnc(-c3ccc(F)cc3)n2n1 (stereo not drawn)	inconclusive: 2.31 µM [activator, single point]	
O=C(C[n+]1ccc(C(=O)NCCCO)cc1)c1cccc(Br)c1		inactive: -9.77%
NS(=O)(=O)c1ccc(CNC(=O)c2ccc(Cl)cc2[N+](=O)[O-])cc1	inconclusive: 11.2 µM [activator, partial curve, poor fit]	

SMILES	Potency	activity change, negative = inhibition
CC(C(=O)NCc1ccc2c(c1)OCO2)N1c2cccc3cccc(c23)S1(=O)=O (stereo not drawn)	inconclusive: 29.1 µM [inhibitor, single point]	
Cc1ccc(NC(=O)CN2C(=O)N/C(=C/c3ccc4c(c3)OCCO4)C2=O)cc1	inconclusive: 6.31 µM [inhibitor, single point]	
OCC1(CCCc2ccccc2)CCN(Cc2cnc(N3CCOCC3)s2)CC1	active: 11.2 µM	
COc1cc(C(=O)Nc2sc3c(c2C(=O)O)CCC(C)C3)cc(OC)c1OC (stereo not drawn)	inconclusive: 1.26 µM [inhibitor, full curve, poor fit]	
Cc1cc(C(=O)COc2cccc(-n3cnnn3)c2)c(C)n1-c1ccccc1	inconclusive: 29.1 µM [inhibitor, single point]	
Cc1ccc(NC(=O)c2ccc([N+](=O)[O-])o2)cc1C	inconclusive: 35.5 µM [inhibitor, single point]	
O=C(C[n+]1cccc(CNC(=O)c2ccc(OC(F)F)cc2)c1)Nc1cc(C(F)(F)F)ccc1Cl		inactive: -0.589%
CC(C)(C)OC(=O)N1Cc2ccccc2C[C@H]1C(=O)N1CCC[C@H]1C(=O)O		inactive: 0.0177% [at 46.1 µM]
Cc1ccc(S(=O)(=O)c2nc(Nc3nccs3)sc2Cl)cc1	inconclusive: 32.6 µM [inhibitor, partial curve, poor fit]	
CCCCOc1ccc(C(=O)Nc2onc3c2CCCC3)cc1	inconclusive: 6.31 µM [activator, partial curve, poor fit]	
Cc1nc2ccn(Cc3cccnc3)c(=O)c2cc1C(=O)N1CCN(c2ccccc2)CC1		inactive: -8.57% [at 46.1 µM]
CCn1c(COc2ccccc2)nc2ccccc21		inactive: 25.4%
CC(=O)Cc1nsc(NC(=O)c2cccs2)n1		inactive: 25.5%
Cc1ccc(CS(=O)(=O)CC(C)(O)c2ccc(Cl)cc2)cc1 (stereo not drawn)	inconclusive: 35.5 µM [inhibitor, single point]	
COC(=O)c1ccc(CSc2nnc(Nc3ccc(OC)cc3)s2)o1		inactive: -20.5%
COc1ccccc1C(=O)Nc1nc(-c2ccc(Br)cc2)ns1		inactive: -1.24% [at 46.1 µM]
Cc1ccc(Nc2nc(N)nc(N)c2S(=O)(=O)c2ccccc2)cc1		inactive: -25.7% [at 46.1 µM]
CC1(C)c2ccccc2N2CC(=O)N[C@@]21/C=C/C=C/c1ccccc1		inactive: 6.22%
COC(=O)c1sccc1S(=O)(=O)N(CC(=O)NCc1ccccc1)c1ccc(C)cc1	inconclusive: 22.4 µM [inhibitor, single point]	
Cc1ccc(S(=O)(=O)N(C)CC(=O)Nc2cccc(C)n2)cc1		inactive: -4.94%
Cn1c(N)c(C(=O)COC(=O)Cc2ccsc2)c(=O)n(C)c1=O	inconclusive: 14.1 µM [activator, partial curve]	
COc1ccccc1N1CCN(S(=O)(=O)CCNC(=O)Cc2ccc(F)cc2)CC1	inconclusive: 1.26 µM [inhibitor, full curve, poor fit]	
Cc1cc(C(=O)NC2CCCCC2)c(C)n1-c1ccc(F)cc1	inconclusive: 11.2 µM [inhibitor, partial curve]	
